# Laboratory results as given in article PMC8384837.
# Changes are numbered by the printed parent chain. Some of the results follow. For some of these results: At the low end of the ranking the order means little.
# How the values were obtained:
# Settings in all cases: yeast three-hybrid, YBZ-1, SC-Leu-His + 0.5 mM 3-AT, 4 days
# [1] = biological target: T1, PUM1 PUF domain R4-AGY N971A + H972G + Q975Y (UniProt Q14671)
# T1 sequence: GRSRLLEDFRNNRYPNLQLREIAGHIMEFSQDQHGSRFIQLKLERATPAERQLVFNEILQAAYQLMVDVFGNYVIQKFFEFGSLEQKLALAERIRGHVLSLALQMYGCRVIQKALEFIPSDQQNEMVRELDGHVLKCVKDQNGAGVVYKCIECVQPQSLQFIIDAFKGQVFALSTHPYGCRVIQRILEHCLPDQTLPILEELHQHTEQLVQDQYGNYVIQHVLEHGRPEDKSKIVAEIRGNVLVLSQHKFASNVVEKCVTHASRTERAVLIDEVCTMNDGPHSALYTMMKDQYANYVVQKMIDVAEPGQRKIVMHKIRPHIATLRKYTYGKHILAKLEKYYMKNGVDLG
# [2] = biological target: T2, PUM1 PUF domain R4-ALC N971A + H972L + Q975C (UniProt Q14671)
# T2 sequence: T1 sequence with G145L, Y148C
# [3] = biological target: T3, PUM1 PUF domain R4-ALG N971A + H972L + Q975G (Homo sapiens) (UniProt Q14671)
# T3 sequence: T1 sequence with G145L, Y148G
# [4] = biological target: T4, PUM1 PUF domain R4-ALS N971A + H972L + Q975S (Homo sapiens) (UniProt Q14671)
# T4 sequence: T1 sequence with G145L, Y148S
# [5] = biological target: T5, PUM1 PUF domain R4-ALY N971A + H972L + Q975Y (UniProt Q14671)
# T5 sequence: T1 sequence with G145L
# [6] = biological target: T6, PUM1 PUF domain R4-AQS N971A + H972Q + Q975S (Homo sapiens) (UniProt Q14671)
# T6 sequence: T1 sequence with G145Q, Y148S
# [7] = biological target: T7, PUM1 PUF domain R4-ARR N971A + H972R + Q975R (Homo sapiens) (UniProt Q14671)
# T7 sequence: T1 sequence with G145R, Y148R
# [8] = biological target: T8, PUM1 PUF domain R4-ARV N971A + H972R + Q975V (UniProt Q14671)
# T8 sequence: T1 sequence with G145R, Y148V
# [9] = biological target: T9, PUM1 PUF domain R4-CGC N971C + H972G + Q975C (Homo sapiens) (UniProt Q14671)
# T9 sequence: T1 sequence with A144C, Y148C
# [10] = biological target: T10, PUM1 PUF domain R4-CRA N971C + H972R + Q975A (Homo sapiens) (UniProt Q14671)
# T10 sequence: T1 sequence with A144C, G145R, Y148A
# [11] = biological target: T11, PUM1 PUF domain R4-CRL N971C + H972R + Q975L (Homo sapiens) (UniProt Q14671)
# T11 sequence: T1 sequence with A144C, G145R, Y148L
# [12] = biological target: T12, PUM1 PUF domain R4-CRR N971C + H972R + Q975R (Homo sapiens) (UniProt Q14671)
# T12 sequence: T1 sequence with A144C, G145R, Y148R
# [13] = biological target: T13, PUM1 PUF domain R4-DFG N971D + H972F + Q975G (Homo sapiens) (UniProt Q14671)
# T13 sequence: T1 sequence with A144D, G145F, Y148G
# [14] = biological target: T14, PUM1 PUF domain R4-DHG N971D + Q975G (Homo sapiens) (UniProt Q14671)
# T14 sequence: T1 sequence with A144D, G145H, Y148G
# [15] = biological target: T15, PUM1 PUF domain R4-DRC N971D + H972R + Q975C (Homo sapiens) (UniProt Q14671)
# T15 sequence: T1 sequence with A144D, G145R, Y148C
# [16] = biological target: T16, PUM1 PUF domain R4-DRG N971D + H972R + Q975G (UniProt Q14671)
# T16 sequence: T1 sequence with A144D, G145R, Y148G
# [17] = biological target: T17, PUM1 PUF domain R4-EHL N971E + Q975L (Homo sapiens) (UniProt Q14671)
# T17 sequence: T1 sequence with A144E, G145H, Y148L
# [18] = biological target: T18, PUM1 PUF domain R4-GPY N971G + H972P + Q975Y (Homo sapiens) (UniProt Q14671)
# T18 sequence: T1 sequence with A144G, G145P
# [19] = biological target: T19, PUM1 PUF domain R4-GQR N971G + H972Q + Q975R (Homo sapiens) (UniProt Q14671)
# T19 sequence: T1 sequence with A144G, G145Q, Y148R
# [20] = biological target: T20, PUM1 PUF domain R4-GQS N971G + H972Q + Q975S (Homo sapiens) (UniProt Q14671)
# T20 sequence: T1 sequence with A144G, G145Q, Y148S
# [21] = biological target: T21, PUM1 PUF domain R4-GRN N971G + H972R + Q975N (Homo sapiens) (UniProt Q14671)
# T21 sequence: T1 sequence with A144G, G145R, Y148N
# [22] = biological target: T22, PUM1 PUF domain R4-GRR N971G + H972R + Q975R (Homo sapiens) (UniProt Q14671)
# T22 sequence: T1 sequence with A144G, G145R, Y148R
# [23] = biological target: T23, PUM1 PUF domain R4-LGC N971L + H972G + Q975C (Homo sapiens) (UniProt Q14671)
# T23 sequence: T1 sequence with A144L, Y148C
# [24] = biological target: T24, PUM1 PUF domain R4-LGL N971L + H972G + Q975L (UniProt Q14671)
# T24 sequence: T1 sequence with A144L, Y148L
# [25] = biological target: T25, PUM1 PUF domain R4-LGM N971L + H972G + Q975M (Homo sapiens) (UniProt Q14671)
# T25 sequence: T1 sequence with A144L, Y148M
# [26] = biological target: T26, PUM1 PUF domain R4-LRC N971L + H972R + Q975C (Homo sapiens) (UniProt Q14671)
# T26 sequence: T1 sequence with A144L, G145R, Y148C
# [27] = biological target: T27, PUM1 PUF domain R4-MLC N971M + H972L + Q975C (UniProt Q14671)
# T27 sequence: T1 sequence with A144M, G145L, Y148C
# [28] = biological target: T28, PUM1 PUF domain R4-PRC N971P + H972R + Q975C (UniProt Q14671)
# T28 sequence: T1 sequence with A144P, G145R, Y148C
# [29] = biological target: T29, PUM1 PUF domain R4-PRQ N971P + H972R (Homo sapiens) (UniProt Q14671)
# T29 sequence: T1 sequence with A144P, G145R, Y148Q
# [30] = biological target: T30, PUM1 PUF domain R4-PTC N971P + H972T + Q975C (UniProt Q14671)
# T30 sequence: T1 sequence with A144P, G145T, Y148C
# [31] = biological target: T31, PUM1 PUF domain R4-QRG N971Q + H972R + Q975G (Homo sapiens) (UniProt Q14671)
# T31 sequence: T1 sequence with A144Q, G145R, Y148G
sequence,measurement,setting,value
GGCUAGAACUAGUGGAUCCCCCGGCGCCCGGCGGCUCGAGCCCGGGUAAGUGUAUAUAGUCUGCAUGCCGCCGGGCGCCAUGCCUGCAGGUCGACUCUAGAAAACAUG,binding signal (log2 enrichment (interaction score)),[1],< -6.72
same,binding signal (log2 enrichment (interaction score)),[2],< -6.36
same,binding signal (log2 enrichment (interaction score)),[3],-4.21
same,binding signal (log2 enrichment (interaction score)),[4],-5.4
same,binding signal (log2 enrichment (interaction score)),[5],< -5.87
same,binding signal (log2 enrichment (interaction score)),[6],-1.28
same,binding signal (log2 enrichment (interaction score)),[7],-0.49
same,binding signal (log2 enrichment (interaction score)),[8],< -4.84
same,binding signal (log2 enrichment (interaction score)),[9],1.24
same,binding signal (log2 enrichment (interaction score)),[10],1.56
same,binding signal (log2 enrichment (interaction score)),[11],-2.13
same,binding signal (log2 enrichment (interaction score)),[12],-2.26
same,binding signal (log2 enrichment (interaction score)),[13],-0.28
same,binding signal (log2 enrichment (interaction score)),[14],-1.95
same,binding signal (log2 enrichment (interaction score)),[15],-1.61
same,binding signal (log2 enrichment (interaction score)),[16],-6.58
same,binding signal (log2 enrichment (interaction score)),[17],0.72
same,binding signal (log2 enrichment (interaction score)),[18],-1.54
same,binding signal (log2 enrichment (interaction score)),[19],-2.06
same,binding signal (log2 enrichment (interaction score)),[20],0.31
same,binding signal (log2 enrichment (interaction score)),[21],0.21
same,binding signal (log2 enrichment (interaction score)),[22],-1.91
same,binding signal (log2 enrichment (interaction score)),[23],-1.77
same,binding signal (log2 enrichment (interaction score)),[24],-4.83
same,binding signal (log2 enrichment (interaction score)),[25],-3.38
same,binding signal (log2 enrichment (interaction score)),[26],-2.26
same,binding signal (log2 enrichment (interaction score)),[27],< -7.75
same,binding signal (log2 enrichment (interaction score)),[28],-5.19
same,binding signal (log2 enrichment (interaction score)),[29],-3.92
same,binding signal (log2 enrichment (interaction score)),[30],< -5.9
same,binding signal (log2 enrichment (interaction score)),[31],0.3

# No new results follow: entries from further up.
sequence,measurement,setting,value
GGCUAGAACUAGUGGAUCCCCCGGCGCCCGGCGGCUCGAGCCCGGGUAAGUGUAUAUAGUCUGCAUGCCGCCGGGCGCCAUGCCUGCAGGUCGACUCUAGAAAACAUG,binding signal (log2 enrichment (interaction score)),[21],0.21
same,binding signal (log2 enrichment (interaction score)),[22],-1.91
